Test results reported in publication PMC10411901, “FIRRM cooperates with FIGNL1 to promote RAD51 disassembly during DNA repair” (Science Advances, 2023).
These are yes or no findings as the source states them, for the method shown. Binding seen in cells or lysates may run through a third protein. Here binding means that the protein was enriched with, or labelled near, the bait; the list need not be complete. Where a sequence is shown, tags or fusion partners need not be part of it.

Protein sequences, listed by entry. Tags and fused reporters are not part of them.
UniProt Q15154: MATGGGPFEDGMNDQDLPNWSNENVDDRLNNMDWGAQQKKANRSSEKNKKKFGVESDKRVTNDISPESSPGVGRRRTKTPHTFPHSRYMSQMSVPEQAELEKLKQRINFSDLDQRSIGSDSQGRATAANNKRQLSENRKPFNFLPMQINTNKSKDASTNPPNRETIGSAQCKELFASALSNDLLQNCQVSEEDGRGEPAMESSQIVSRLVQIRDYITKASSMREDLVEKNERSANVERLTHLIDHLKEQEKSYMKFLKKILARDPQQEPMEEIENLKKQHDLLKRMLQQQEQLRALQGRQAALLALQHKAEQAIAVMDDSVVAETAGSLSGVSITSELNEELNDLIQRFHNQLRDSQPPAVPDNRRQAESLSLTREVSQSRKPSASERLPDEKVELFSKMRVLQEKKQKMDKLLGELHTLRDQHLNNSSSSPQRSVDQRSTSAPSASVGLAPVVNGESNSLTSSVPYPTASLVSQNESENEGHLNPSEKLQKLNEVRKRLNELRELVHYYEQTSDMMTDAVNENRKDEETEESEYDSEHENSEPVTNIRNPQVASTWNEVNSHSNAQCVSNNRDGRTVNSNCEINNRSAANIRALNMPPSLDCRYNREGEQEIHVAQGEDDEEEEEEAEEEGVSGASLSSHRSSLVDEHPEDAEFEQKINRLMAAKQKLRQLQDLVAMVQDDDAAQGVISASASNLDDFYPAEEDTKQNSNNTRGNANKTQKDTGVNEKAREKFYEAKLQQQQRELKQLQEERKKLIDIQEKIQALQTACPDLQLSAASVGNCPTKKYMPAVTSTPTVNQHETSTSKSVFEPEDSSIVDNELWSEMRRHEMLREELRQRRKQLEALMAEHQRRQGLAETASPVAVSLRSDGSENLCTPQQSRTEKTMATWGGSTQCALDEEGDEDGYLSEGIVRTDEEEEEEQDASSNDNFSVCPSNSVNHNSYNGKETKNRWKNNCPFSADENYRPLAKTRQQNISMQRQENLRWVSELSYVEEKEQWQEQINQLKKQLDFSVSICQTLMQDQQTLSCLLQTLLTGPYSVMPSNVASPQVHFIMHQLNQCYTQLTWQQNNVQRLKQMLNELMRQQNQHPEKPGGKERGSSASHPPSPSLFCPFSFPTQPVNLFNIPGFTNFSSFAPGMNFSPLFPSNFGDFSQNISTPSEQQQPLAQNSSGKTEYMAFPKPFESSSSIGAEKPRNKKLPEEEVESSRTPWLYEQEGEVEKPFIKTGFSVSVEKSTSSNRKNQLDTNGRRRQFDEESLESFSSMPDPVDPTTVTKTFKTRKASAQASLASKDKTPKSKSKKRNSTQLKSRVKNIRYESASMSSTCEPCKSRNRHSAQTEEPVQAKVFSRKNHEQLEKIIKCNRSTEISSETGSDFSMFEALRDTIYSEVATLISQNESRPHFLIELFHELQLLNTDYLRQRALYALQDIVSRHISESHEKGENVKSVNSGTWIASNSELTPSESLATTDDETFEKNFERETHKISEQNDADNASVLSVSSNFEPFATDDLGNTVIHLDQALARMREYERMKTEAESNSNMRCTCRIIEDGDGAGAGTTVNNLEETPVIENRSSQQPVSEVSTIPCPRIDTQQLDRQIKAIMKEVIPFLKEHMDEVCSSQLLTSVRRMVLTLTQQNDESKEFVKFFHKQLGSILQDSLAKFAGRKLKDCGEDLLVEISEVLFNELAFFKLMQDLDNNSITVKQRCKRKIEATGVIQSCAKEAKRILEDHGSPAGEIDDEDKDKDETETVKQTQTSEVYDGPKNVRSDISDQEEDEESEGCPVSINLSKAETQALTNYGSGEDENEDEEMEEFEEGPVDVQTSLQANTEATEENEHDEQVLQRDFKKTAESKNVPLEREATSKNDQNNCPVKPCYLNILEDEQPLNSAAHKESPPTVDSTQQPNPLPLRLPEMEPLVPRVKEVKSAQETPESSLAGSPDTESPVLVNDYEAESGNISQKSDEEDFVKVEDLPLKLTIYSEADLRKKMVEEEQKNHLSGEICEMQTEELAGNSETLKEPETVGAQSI

T1: mTurboID-FIRRM (FIRRM N-terminally tagged with the biotin ligase miniTurbo) (human) (UniProt Q9NSG2)
T1 sequence: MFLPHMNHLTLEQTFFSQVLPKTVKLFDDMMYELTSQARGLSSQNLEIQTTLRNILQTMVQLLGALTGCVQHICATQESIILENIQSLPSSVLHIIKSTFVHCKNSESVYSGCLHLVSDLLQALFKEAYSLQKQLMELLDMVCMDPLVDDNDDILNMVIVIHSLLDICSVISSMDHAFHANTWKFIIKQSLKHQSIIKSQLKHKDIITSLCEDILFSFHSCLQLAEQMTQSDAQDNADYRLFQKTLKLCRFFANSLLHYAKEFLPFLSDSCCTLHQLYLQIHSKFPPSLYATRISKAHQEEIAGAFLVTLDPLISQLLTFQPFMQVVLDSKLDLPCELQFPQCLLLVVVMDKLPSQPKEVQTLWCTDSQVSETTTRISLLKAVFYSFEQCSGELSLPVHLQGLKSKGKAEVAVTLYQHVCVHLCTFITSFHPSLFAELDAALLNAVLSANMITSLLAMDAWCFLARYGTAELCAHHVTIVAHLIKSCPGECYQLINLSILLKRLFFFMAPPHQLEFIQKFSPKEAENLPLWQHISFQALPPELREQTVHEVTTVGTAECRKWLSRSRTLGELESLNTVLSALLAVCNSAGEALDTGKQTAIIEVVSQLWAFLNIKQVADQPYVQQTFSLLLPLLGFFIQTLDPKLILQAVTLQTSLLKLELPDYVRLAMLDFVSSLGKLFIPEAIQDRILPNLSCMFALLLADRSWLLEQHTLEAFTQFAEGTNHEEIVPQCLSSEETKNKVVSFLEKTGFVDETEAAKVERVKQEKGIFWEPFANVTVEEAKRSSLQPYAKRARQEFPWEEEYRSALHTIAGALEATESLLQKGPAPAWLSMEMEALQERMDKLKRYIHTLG

B1: endogenous FIGNL1 (Fidgetin like 1) (protein, UniProt Q6PIW4 1-674)
chain: MQTSSSRSVHLSEWQKNYFAITSGICTGPKADAYRAQILRIQYAWANSEISQVCATKLFKKYAEKYSAIIDSDNVESGLNNYAENILTLAGSQQTDSDKWQSGLSINNVFKMSSVQKMMQAGKKFKDSLLEPALASVVIHKEATVFDLPKFSVCGSSQESDSLPNSAHDRDRTQDFPESNRLKLLQNAQPPMVTNTARTCPTFSAPVGESATAKFHVTPLFGNVKKENHSSAKENIGLNVFLSNQSCFPAACENPQRKSFYGSGTIDALSNPILNKACSKTEDNGPKEDSSLPTFKTAKEQLWVDQQKKYHQPQRASGSSYGGVKKSLGASRSRGILGKFVPPIPKQDGGEQNGGMQCKPYGAGPTEPAHPVDERLKNLEPKMIELIMNEIMDHGPPVNWEDIAGVEFAKATIKEIVVWPMLRPDIFTGLRGPPKGILLFGPPGTGKTLIGKCIASQSGATFFSISASSLTSKWVGEGEKMVRALFAVARCQQPAVIFIDEIDSLLSQRGDGEHESSRRIKTEFLVQLDGATTSSEDRILVVGATNRPQEIDEAARRRLVKRLYIPLPEASARKQIVINLMSKEQCCLSEEEIEQIVQQSDAFSGADMTQLCREASLGPIRSLQTADIATITPDQVRPIAYIDFENAFRTVRPSVSPKDLELYENWNKTFGCGK
B2: DNA excision repair protein ERCC6-like (protein, UniProt Q2NKX8 1-1250)
chain: MEASRRFPEAEALSPEQAAHYLRYVKEAKEATKNGDLEEAFKLFNLAKDIFPNEKVLSRIQKIQEALEELAEQGDDEFTDVCNSGLLLYRELHNQLFEHQKEGIAFLYSLYRDGRKGGILADDMGLGKTVQIIAFLSGMFDASLVNHVLLIMPTNLINTWVKEFIKWTPGMRVKTFHGPSKDERTRNLNRIQQRNGVIITTYQMLINNWQQLSSFRGQEFVWDYVILDEAHKIKTSSTKSAICARAIPASNRLLLTGTPIQNNLQELWSLFDFACQGSLLGTLKTFKMEYENPITRAREKDATPGEKALGFKISENLMAIIKPYFLRRTKEDVQKKKSSNPEARLNEKNPDVDAICEMPSLSRKNDLIIWIRLVPLQEEIYRKFVSLDHIKELLMETRSPLAELGVLKKLCDHPRLLSARACCLLNLGTFSAQDGNEGEDSPDVDHIDQVTDDTLMEESGKMIFLMDLLKRLRDEGHQTLVFSQSRQILNIIERLLKNRHFKTLRIDGTVTHLLEREKRINLFQQNKDYSVFLLTTQVGGVGLTLTAATRVVIFDPSWNPATDAQAVDRVYRIGQKENVVVYRLITCGTVEEKIYRRQVFKDSLIRQTTGEKKNPFRYFSKQELRELFTIEDLQNSVTQLQLQSLHAAQRKSDIKLDEHIAYLQSLGIAGISDHDLMYTCDLSVKEELDVVEESHYIQQRVQKAQFLVEFESQNKEFLMEQQRTRNEGAWLREPVFPSSTKKKCPKLNKPQPQPSPLLSTHHTQEEDISSKMASVVIDDLPKEGEKQDLSSIKVNVTTLQDGKGTGSADSIATLPKGFGSVEELCTNSSLGMEKSFATKNEAVQKETLQEGPKQEALQEDPLESFNYVLSKSTKADIGPNLDQLKDDEILRHCNPWPIISITNESQNAESNVSIIEIADDLSASHSALQDAQASEAKLEEEPSASSPQYACDFNLFLEDSADNRQNFSSQSLEHVEKENSLCGSAPNSRAGFVHSKTCLSWEFSEKDDEPEEVVVKAKIRSKARRIVSDGEDEDDSFKDTSSINPFNTSLFQFSSVKQFDASTPKNDISPPGRFFSSQIPSSVNKSMNSRRSLASRRSLINMVLDHVEDMEERLDDSSEAKGPEDYPEEGVEESSGEASKYTEEDPSGETLSSENKSSWLMTSKPSALAQETSLGAPEPLSGEQLVGSPQDKAAEATNDYETLVKRGKELKECGKIQEALNCLVKALDIKSADPEVMLLTLSLYKQLNNN

What follows are molecules tested against T1, mTurboID-FIRRM (FIRRM N-terminally tagged with the biotin ligase miniTurbo) (human) (assay: proximity labelling; mTurboID-FIRRM stably expressed in HEK293 Flp-In cells, steady state, 3 hours of biotin labeling; streptavidin pull-down and mass spectrometry, SAINTexpress against the empty tag).

Row | Molecule | binding
1 | pericentriolar material 1 protein (from UniProt Q15154 1-2024) | binds
2 | B1 | binds
3 | B2 | binds
